This passage reports binding results from article PMC6204899.

This test addresses T1, ARGONAUTE1 (Arabidopsis thaliana (endogenous in seedlings)) (UniProt O04379).
T1 sequence: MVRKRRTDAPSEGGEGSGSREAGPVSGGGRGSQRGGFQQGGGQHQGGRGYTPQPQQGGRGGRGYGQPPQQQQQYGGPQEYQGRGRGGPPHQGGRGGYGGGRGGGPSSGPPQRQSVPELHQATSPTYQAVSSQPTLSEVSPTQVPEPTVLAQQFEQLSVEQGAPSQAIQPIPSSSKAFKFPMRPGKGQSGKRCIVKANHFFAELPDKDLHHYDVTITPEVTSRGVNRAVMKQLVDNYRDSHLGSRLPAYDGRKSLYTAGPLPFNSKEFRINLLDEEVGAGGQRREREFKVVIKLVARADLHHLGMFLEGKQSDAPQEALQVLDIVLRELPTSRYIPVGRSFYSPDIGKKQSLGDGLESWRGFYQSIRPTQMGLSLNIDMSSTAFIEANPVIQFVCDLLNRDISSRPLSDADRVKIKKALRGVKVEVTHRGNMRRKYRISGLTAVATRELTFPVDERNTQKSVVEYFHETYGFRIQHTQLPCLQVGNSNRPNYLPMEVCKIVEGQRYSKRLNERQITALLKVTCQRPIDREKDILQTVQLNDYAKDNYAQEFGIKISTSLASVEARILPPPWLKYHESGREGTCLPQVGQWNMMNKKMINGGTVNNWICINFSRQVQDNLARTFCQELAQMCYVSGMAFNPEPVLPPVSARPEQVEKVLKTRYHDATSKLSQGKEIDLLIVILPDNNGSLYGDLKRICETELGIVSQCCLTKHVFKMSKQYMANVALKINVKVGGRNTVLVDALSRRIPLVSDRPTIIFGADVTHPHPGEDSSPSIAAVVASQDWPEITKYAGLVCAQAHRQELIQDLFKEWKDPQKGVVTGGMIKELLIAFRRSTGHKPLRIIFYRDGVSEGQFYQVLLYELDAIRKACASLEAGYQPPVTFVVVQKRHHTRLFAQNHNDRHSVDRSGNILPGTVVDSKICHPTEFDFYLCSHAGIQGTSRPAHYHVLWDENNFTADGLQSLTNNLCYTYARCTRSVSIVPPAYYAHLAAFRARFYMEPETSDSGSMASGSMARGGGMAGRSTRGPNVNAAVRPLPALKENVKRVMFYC
The test can be described thus: affinity purification with mass spectrometry; large-scale immunoaffinity purification with native AGO1 antibody from deoxycholate-solubilized microsome fractions of formaldehyde cross-linked 16-day-old seedlings; peptide elution; cross-links reversed; LC-MS/MS; mock immunopurification as control.

No constants are given. Whether binding was seen depends on the method and setting. In cells and extracts the contact can be indirect. These calls come from enrichment with a bait or labelling near it, and not all partners need be listed.

B1: J3 (farnesylated heat shock protein 40 homolog) (protein, UniProt Q94AW8 1-420)
chain: MFGRGPSKKSDNTKFYEILGVPKSASPEDLKKAYKKAAIKNHPDKGGDPEKFKELAQAYEVLSDPEKREIYDQYGEDALKEGMGGGGGGHDPFDIFSSFFGGGPFGGNTSRQRRQRRGEDVVHPLKVSLEDVYLGTMKKLSLSRNALCSKCNGKGSKSGASLKCGGCQGSGMKVSIRQLGPGMIQQMQHACNECKGTGETINDRDRCPQCKGDKVIPEKKVLEVNVEKGMQHSQKITFEGQADEAPDTVTGDIVFVLQQKEHPKFKRKGEDLFVEHTLSLTEALCGFQFVLTHLDGRSLLIKSNPGEVVKPDSYKAISDEGMPIYQRPFMKGKLYIHFTVEFPDSLSPDQTKALEAVLPKPSTAQLSDMEIDECEETTLHDVNIEDEMRRKAQAQREAYDDDDEDDDHPGGAQRVQCAQQ
modifications: farnesylated in planta (C-terminal CAAX motif; J3 farnesylation site C417)
Consider B1, for which the binding entry is “binds”.
